Reference: PubChem BioAssay AID493014 (National Center for Advancing Translational Sciences (NCATS), 2011)
This is one part of the list. The main result of the screen is listed elsewhere. These columns were measured beside it and carry no call. The list favours compounds with an active or inconclusive main result. Words in brackets tell the shape of the fitted curve; partial curves, single points and poor fits give uncertain potencies.

Test: qHTS Assay to Find Inhibitors of Chronic Active B-Cell Receptor Signaling
Details: ABC-DLBCL IkBa-CBG/CBR reporter, luminescence ratio (green luciferase fused to IkBa over red control in TMD8 lymphoma cells), 4 h
Method in brief: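 TMD8 ABC-DLBCL cells carrying doxycycline-inducible green luciferase fused to IkappaBalpha plus unfused red luciferase were exposed to compounds (up to 46 uM) for 4 hrs at 37C. Activity came from the overlap-corrected green/red luminescence ratio.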

[1] = measured here: CBR red luminescence, cell number
[2] = measured here: IkBa-CBG green luminescence

| Structure (SMILES) | AC50 [1] | AC50 [2] |
| --- | --- | --- |
| Cc1nc(C)c(-c2csc(Nc3ccc(O)cc3C)n2)s1 | 0.708 µM [rising, full curve] | 2.51 µM [falling, full curve, poor fit] |
| Oc1ccc(N=Nc2cccc(Cl)c2)cc1C=Nc1ccc(N2CCOCC2)cc1 | 20.6 µM [rising, partial curve, poor fit] | – |
| O=C(O)C1CCC(N2C(=O)C3CCCCC3C2=O)CC1 (stereo not drawn) | 29.1 µM [falling, single point] | – |
| O=C1CC(c2ccccc2)CN1C(=O)c1cccc([N+](=O)[O-])c1 (stereo not drawn) | 29.1 µM [rising, single point] | – |
| CCOC(=O)Cc1csc(NC(=O)CSc2nc(N)c3c(C)c(C)sc3n2)n1 | 14.6 µM [rising, single point] | – |
| CCOc1ccc(Nc2ncnc3ccc([N+](=O)[O-])cc23)cc1 | 1.26 µM [falling, full curve, poor fit] | – |
| c1ccc(-n2ncc3c(NCc4ccc5c(c4)OCO5)ncnc32)cc1 | 8.2 µM [falling, partial curve] | 3.66 µM [rising, full curve] |
| O=C(NCCc1c[nH]c2ccccc12)c1cccnc1 | 7.08 µM [falling, full curve, poor fit] | – |
| O=c1c(=NNc2ccccc2Cl)c(=O)c2ccccc12 | 6.31 µM [falling, single point] | – |
| O=C(Nc1cccc(Cl)c1)c1ccc(F)c(S(=O)(=O)NCc2cccs2)c1 | 18.4 µM [falling, single point] | – |
| Cc1ccccc1C(=O)Nc1ccc(N(C)C)c2ccccc12 | 35.5 µM [rising, single point] | – |
| COc1ccc(OC)c(NC(=O)CCCCCn2nnc3ccccc3c2=O)c1 | 14.1 µM [rising, partial curve] | – |
| O=C(CCc1nc2ccccc2[nH]c1=O)OCc1ccc(S(=O)(=O)N2CCOCC2)cc1 | 6.51 µM [falling, single point] | – |
| Cc1ccc(NC(=O)CN(C)S(=O)(=O)c2cccs2)cc1F | 2.51 µM [rising, full curve, poor fit] | – |
| COc1cc(OC)c(C(=O)NCCCn2ccnc2)cc1OC | 35.5 µM [rising, partial curve, poor fit] | – |
| Cc1c(C(=O)N2CCc3ccccc32)oc2c1C(=O)CC(C)(C)C2 | 2.91 µM [rising, single point] | – |
| CCN(CC)C(=O)CN(c1cccc(Br)c1)S(C)(=O)=O | 35.5 µM [rising, single point] | – |
| N#CCc1cnc2ccccc2n1 | 3.16 µM [falling, partial curve, poor fit] | – |
| CC(NC(=O)c1nn(C)c(=O)c2ccccc12)c1ccc(F)cc1 (stereo not drawn) | 23.1 µM [rising, partial curve] | – |
| Cc1ccc(-c2nc3ccccc3s2)cc1NC(=S)NC(=O)c1ccccc1 | 0.316 µM [rising, full curve] | – |
| Cc1ccc2nc(NC(=O)CSCC(=O)OCC(=O)c3ccc(Br)cc3)sc2c1 | 2.51 µM [falling, full curve, poor fit] | – |
| C=CCN(c1ccccc1C(=O)O)S(=O)(=O)c1ccc(C)cc1 | 12.6 µM [falling, single point] | – |

Single records (already shown). Values in the order: AC50 [1] | AC50 [2]
`CCOC(=O)Cc1csc(NC(=O)CSc2nc(N)c3c(C)c(C)sc3n2)n1` in the list: 14.6 µM [rising, single point] | –
`N#CCc1cnc2ccccc2n1` in the list: 3.16 µM [falling, partial curve, poor fit] | –
`C=CCN(c1ccccc1C(=O)O)S(=O)(=O)c1ccc(C)cc1` in the list: 12.6 µM [falling, single point] | –

Going on with the list:

| Structure (SMILES) | AC50 [1] | AC50 [2] |
| --- | --- | --- |
| Cc1cc(CNC(=O)c2cc(Br)ccc2Cl)nn1C | 4.11 µM [rising, full curve, poor fit] | – |
| CN(CC(=O)Nc1cccc(F)c1)C(=O)c1cccnc1Sc1ccc(Cl)cc1 | 11.6 µM [falling, partial curve, poor fit] | – |
| COc1ccc2c(CC(=O)Nc3nnc(C4CC4)s3)coc2c1 | 1.64 µM [falling, partial curve, poor fit] | – |
| Cc1ccc(/C=C/C(=O)NC2CCS(=O)(=O)C2)cc1 (stereo not drawn) | 0.282 µM [rising, full curve, poor fit] | – |
| CCOc1ccc(C(=O)CCN2CCCCCC2)cc1 | 17.8 µM [falling, single point] | – |
| O=C(/C=C/c1cccc(O)c1)c1ccc(N2CCOCC2)cc1 | 17.8 µM [falling, partial curve, poor fit] | – |
| Cc1[nH]n(CCC#N)c(=O)c1CC(=O)N1CCN(c2ccccc2)CC1 | 14.1 µM [rising, single point] | – |
| COc1ccc(NC(=O)c2ccc(-c3nn(C)c(=O)c4ccccc34)cc2)cc1C(N)=O | 0.251 µM [rising, full curve, poor fit] | – |
| O=C(CCCCCBr)N1CCC(CC2CC(c3cccc(Br)c3)=NO2)(C(=O)NCC2CCCCC2)CC1 (stereo not drawn) | 11.2 µM [falling, partial curve] | – |
| CCOC(=O)C(CC)Sc1nc2c(c(=O)[nH]c(=O)n2C)n1CCc1ccccc1 (stereo not drawn) | 5.01 µM [falling, partial curve, poor fit] | – |
| COc1cccc(NC(=O)c2ccc(NC(=O)C3CC(=O)OC34CCCCC4)cc2)c1 (stereo not drawn) | 20 µM [falling, single point] | 14.1 µM [rising, partial curve, poor fit] |
| Cc1cc(S(=O)(=O)NCCN2CCOCC2)ccc1Cl | 1.41 µM [rising, partial curve] | – |
| Cc1noc(C)c1CSCC(=O)Nc1cc(Cl)ccc1N1CCCCC1 | 5.8 µM [falling, partial curve] | – |
| O=C(CCl)Nc1ccccc1Sc1ccc(Cl)cc1 | 10.3 µM [falling, partial curve, poor fit] | – |
| COCCN(Cc1cc2ccccc2[nH]c1=O)C(=O)c1ccccc1OC | 29.1 µM [rising, single point] | – |
| O=C(CSc1c2c(nc3ccc(Cl)cc13)CCCC2)NCCCN1CCOCC1 | 25.1 µM [falling, single point] | – |
| CCCCn1c(SCC(=O)Nc2cc(C(F)(F)F)cc(C(F)(F)F)c2)nnc1C(CC)N(C)C (stereo not drawn) | 5.8 µM [falling, partial curve, poor fit] | – |
| CCc1ccc(N(CC(=O)Nc2sc3c(c2C(=O)OC)CCCC3)S(C)(=O)=O)cc1 | 29.1 µM [rising, single point] | – |
| O=S(=O)(NCC1CCCO1)c1cc(Cl)ccc1Cl (stereo not drawn) | 0.116 µM [falling, full curve, poor fit] | – |
| COc1ccc(/C=N/NC(=O)c2cccc(Br)c2)cc1CN1CCOCC1 | 10 µM [falling, partial curve] | – |
| Cc1ccc(NC(=O)c2cncc(Br)c2)c([N+](=O)[O-])c1 | 0.058 µM [rising, full curve, poor fit] | – |
| Cc1cc(C)c(C#N)c(SCc2ccccc2F)n1 | 14.1 µM [rising, partial curve, poor fit] | – |

| Structure (SMILES) | AC50 [1] | AC50 [2] |
| --- | --- | --- |
| O=C(O)C1CC(=O)N(C2CCCCCC2)C1 (stereo not drawn) | 29.1 µM [rising, single point] | – |
| Nc1ncnc(Nc2cccc(C(F)(F)F)c2)n1 | 3.16 µM [rising, partial curve] | – |
| CC(C)CN(C(=O)c1ccco1)C1CCS(=O)(=O)C1 (stereo not drawn) | 9.2 µM [falling, partial curve] | – |
| COc1cccc2sc3cc(NCc4ccc5c(c4)OCO5)ccc3c(=O)c12 | 8.2 µM [falling, partial curve, poor fit] | – |
| COc1ccc(/C=C\c2nc(=O)c3ccccc3o2)cc1 | 0.708 µM [falling, full curve] | – |
| Cc1ccc(-c2nnn(CC(=O)N(Cc3ccco3)C(C(=O)NC(C)(C)C)c3cccs3)n2)o1 (stereo not drawn) | 6.51 µM [falling, single point] | – |
| CCOc1cc(CN2CCCC(CNC(=O)c3ccc(F)cc3)C2)ccc1OC (stereo not drawn) | 15.8 µM [rising, partial curve, poor fit] | – |
| Cc1cc(NC(=O)C(Cl)c2ccccc2)no1 (stereo not drawn) | 4.47 µM [falling, partial curve, poor fit] | – |
| COC(=O)c1sccc1NC(=O)/C=C/c1c(Cl)cccc1Cl | 29.1 µM [falling, single point] | – |
| O=C(O)c1ccc(COc2ccc3ccccc3c2/C=C2/NC(=O)N(c3ccccc3)C2=O)cc1 | 2.51 µM [falling, full curve] | – |
| COc1cccc(CNc2nc(-c3cccnc3)nc3ccccc23)c1 | 35.5 µM [falling, single point] | – |
| O=C(O)CSc1nnc(NC(=O)CN2CCOCC2)s1 | 35.5 µM [rising, single point] | – |
| CCOc1ccccc1N1CCN(C(=O)c2ccncc2)CC1 | 0.00517 µM [rising, full curve, poor fit] | – |
| COc1ccc(OC)c(Nc2nc3ccc(C)cc3n3cnnc23)c1 | 15.8 µM [rising, partial curve, poor fit] | – |
| O=C(CCc1ccccc1)N/N=C/c1cccc(O)c1 | 3.16 µM [rising, single point] | – |
| CCCCS(=O)(=O)N1CN(S(=O)(=O)CCCC)C2NC(=O)NC21 (stereo not drawn) | 35.5 µM [falling, single point] | – |
| O=C(c1cc(-c2ccc(Br)cc2)n[nH]1)N1CCN(C(=O)c2ccccc2Br)CC1 | 35.5 µM [falling, single point] | – |
| Cc1ccc([N+](=O)[O-])cc1NC(=O)Nc1ccc(S(N)(=O)=O)cc1 | 0.178 µM [rising, full curve, poor fit] | – |
| O=C(OCc1c(-c2ccccc2)ncc2ccccc12)c1cccs1 | 29.1 µM [falling, single point] | – |
| COc1cc(O)cc(O)c1C(=O)/C=C/c1ccccc1 | 35.5 µM [falling, partial curve, poor fit] | – |
| Cc1ccc(NC(=O)c2ccc3c(c2)CCN3S(C)(=O)=O)cc1C | 35.5 µM [falling, partial curve, poor fit] | – |
